Data: US20250230248A1
These are yes or no findings as the source states them, for the method shown. Some entries that bind do so weakly or less than the wild type. Blank lines part the entries; values can stand above or below the binder they belong to.

Chains of the proteins cited; added tags and fusions are not shown. Residues count along the entry.
UniProt P08581, residues 25-932: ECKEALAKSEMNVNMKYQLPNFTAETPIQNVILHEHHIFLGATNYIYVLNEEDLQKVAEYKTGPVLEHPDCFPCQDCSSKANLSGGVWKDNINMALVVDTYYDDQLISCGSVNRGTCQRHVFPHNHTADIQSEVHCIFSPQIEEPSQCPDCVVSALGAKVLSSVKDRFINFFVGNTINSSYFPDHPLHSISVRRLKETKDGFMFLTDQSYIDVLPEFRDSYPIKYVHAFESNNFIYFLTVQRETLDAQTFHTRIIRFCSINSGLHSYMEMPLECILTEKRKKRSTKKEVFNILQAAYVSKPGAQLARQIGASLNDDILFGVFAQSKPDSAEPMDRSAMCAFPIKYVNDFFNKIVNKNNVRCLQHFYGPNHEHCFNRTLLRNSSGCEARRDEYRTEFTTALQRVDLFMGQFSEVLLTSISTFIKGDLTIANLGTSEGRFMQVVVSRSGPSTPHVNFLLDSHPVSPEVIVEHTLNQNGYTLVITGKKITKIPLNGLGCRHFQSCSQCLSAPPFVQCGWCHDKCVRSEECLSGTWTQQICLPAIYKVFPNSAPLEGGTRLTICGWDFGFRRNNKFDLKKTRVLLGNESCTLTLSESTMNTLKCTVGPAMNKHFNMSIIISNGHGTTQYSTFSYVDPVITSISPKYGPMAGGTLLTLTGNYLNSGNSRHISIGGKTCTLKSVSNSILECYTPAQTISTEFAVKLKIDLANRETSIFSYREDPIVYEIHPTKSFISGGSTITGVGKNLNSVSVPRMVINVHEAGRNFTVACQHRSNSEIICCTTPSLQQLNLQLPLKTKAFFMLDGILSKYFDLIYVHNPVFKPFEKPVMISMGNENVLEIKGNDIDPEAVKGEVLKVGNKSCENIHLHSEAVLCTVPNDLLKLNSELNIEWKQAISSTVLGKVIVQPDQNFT

Target: cMET extracellular domain (ECD) (UniProt P08581)
Experiment: ELISA, FIG. 3A

- binding: binds
B1: TV1 (antibody, V domains shown)
VH: QVQLVQSGAEVKKPGSSVKVSCKASGYIFTAYTMHWVRQAPGQGLEWMGGIKPNNGLANYAQKFQGRVTITADESTSTAYMELSSLRSEDTAVYYCARSEITTEFDYWGQGTLVTVSS
VL: DIVMTQSPDSLAVSLGERATINCKSSESVDSYANSFLHWYQQKPGQPPKLLIYRASTRESGVPDRFSGSGSGTDFTLTISSLQAEDVAVYYCQQSKEDPLTFGGGTKVEIK

- binding: binds
B2: TV4 (antibody, V domains shown)
VH: QVQLQESGPGLVKPSGTLSLTCAVSGYIFTAYTMHWVRQPPGKGLEWIGGIKPNNGLANYNPSLKSRATLSVDKSKNQASMKLSSVTAADTAVYYCARSEITTEFDYWGQGTLVTVSS
VL: DIQMTQSPSSLSASVGDRVTITCRASESVDSYANSFMHWYQQKPGKAPKLLIYRASNLESGVPSRFSGSGSGTDFTLTISSLQPEDFATYYCQQSKEDPLTFGGGTKVEIK
